Data: publication PMC8436130
Results are given in words; binding and its absence hold for the method and conditions named. In cells and extracts the contact can be indirect. These calls come from enrichment with a bait or labelling near it, and not all partners need be listed.

Sequences of proteins named here, by UniProt entry; tags and fusion partners are left off.
UniProt Q86WV6: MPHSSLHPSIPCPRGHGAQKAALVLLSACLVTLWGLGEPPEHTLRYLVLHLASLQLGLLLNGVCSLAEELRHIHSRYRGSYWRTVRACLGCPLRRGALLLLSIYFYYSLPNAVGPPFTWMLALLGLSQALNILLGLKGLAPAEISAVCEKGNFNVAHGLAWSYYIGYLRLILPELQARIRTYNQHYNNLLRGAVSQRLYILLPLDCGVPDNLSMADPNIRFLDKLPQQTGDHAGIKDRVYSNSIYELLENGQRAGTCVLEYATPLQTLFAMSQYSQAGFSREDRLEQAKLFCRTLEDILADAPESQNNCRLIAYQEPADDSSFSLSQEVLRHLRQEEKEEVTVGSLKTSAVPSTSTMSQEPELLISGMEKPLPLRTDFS

Molecular target: STimulator of INterferon Genes (STING) fused to GFP (UniProt Q86WV6)
Assay: affinity purification with mass spectrometry; nuclear envelopes isolated from HEK293T cells expressing STING-GFP, reversibly cross-linked with ortho-phenanthroline copper, resuspended in RIPA and sonicated, immunoprecipitated with GFP antibodies on Protein A-sepharose, released with 50 mM DTT, tandem mass spectrometry; mock-transfected cells as control

Row | binding | Binder
1 | binds | ILF3 (protein, UniProt Q12906 1-894) MRPMRIFVNDDRHVMAKHSSVYPTQEELEAVQNMVSHTERALKAVSDWIDEQEKGSSEQAESDNMDVPPEDDSKEGAGEQKTEHMTRTLRGVMRVGLVAKGLLLKGDLDLELVLLCKEKPTTALLDKVADNLAIQLAAVTEDKYEILQSVDDAAIVIKNTKEPPLSLTIHLTSPVVREEMEKVLAGETLSVNDPPDVLDRQKCLAALASLRHAKWFQARANGLKSCVIVIRVLRDLCTRVPTWGPLRGWPLELLCEKSIGTANRPMGAGEALRRVLECLASGIVMPDGSGIYDPCEKEATDAIGHLDRQQREDITQSAQHALRLAAFGQLHKVLGMDPLPSKMPKKPKNENPVDYTVQIPPSTTYAITPMKRPMEEDGEEKSPSKKKKKIQKKEEKAEPPQAMNALMRLNQLKPGLQYKLVSQTGPVHAPIFTMSVEVDGNSFEASGPSKKTAKLHVAVKVLQDMGLPTGAEGRDSSKGEDSAEETEAKPAVVAPAPVVEAVSTPSAAFPSDATAEQGPILTKHGKNPVMELNEKRRGLKYELISETGGSHDKRFVMEVEVDGQKFQGAGSNKKVAKAYAALAALEKLFPDTPLALDANKKKRAPVPVRGGPKFAAKPHNPGFGMGGPMHNEVPPPPNLRGRGRGGSIRGRGRGRGFGGANHGGYMNAGAGYGSYGYGGNSATAGYSQFYSNGGHSGNASGGGGGGGGGSSGYGSYYQGDNYNSPVPPKHAGKKQPHGGQQKPSYGSGYQSHQGQQQSYNQSPYSNYGPPQGKQKGYNHGQGSYSYSNSYNSPGGGGGSDYNYESKFNYSGSGGRSGGNSYGSGGASYNPGSHGGYGGGSGGGSSYQGKQGGYSQSNYNSPGSGQNYSGPPSSYQSSQGGYGRNADHSMNYQYR
2 | binds | SRSF2 (protein, UniProt Q01130 1-221) MSYGRPPPDVEGMTSLKVDNLTYRTSPDTLRRVFEKYGRVGDVYIPRDRYTKESRGFAFVRFHDKRDAEDAMDAMDGAVLDGRELRVQMARYGRPPDSHHSRRGPPPRRYGGGGYGRRSRSPRRRRRSRSRSRSRSRSRSRSRYSRSKSRSRTRSRSRSTSKSRSARRSKSKSSSVSRSRSRSRSRSRSRSPPPVSKRESKSRSRSKSPPKSPEEEGAVSS
3 | binds | KIF22 (protein, UniProt Q14807 1-665) MAAGGSTQQRRREMAAASAAAISGAGRCRLSKIGATRRPPPARVRVAVRLRPFVDGTAGASDPPCVRGMDSCSLEIANWRNHQETLKYQFDAFYGERSTQQDIYAGSVQPILRHLLEGQNASVLAYGPTGAGKTHTMLGSPEQPGVIPRALMDLLQLTREEGAEGRPWALSVTMSYLEIYQEKVLDLLDPASGDLVIREDCRGNILIPGLSQKPISSFADFERHFLPASRNRTVGATRLNQRSSRSHAVLLVKVDQRERLAPFRQREGKLYLIDLAGSEDNRRTGNKGLRLKESGAINTSLFVLGKVVDALNQGLPRVPYRDSKLTRLLQDSLGGSAHSILIANIAPERRFYLDTVSALNFAARSKEVINRPFTNESLQPHALGPVKLSQKELLGPPEAKRARGPEEEEIGSPEPMAAPASASQKLSPLQKLSSMDPAMLERLLSLDRLLASQGSQGAPLLSTPKRERMVLMKTVEEKDLEIERLKTKQKELEAKMLAQKAEEKENHCPTMLRPLSHRTVTGAKPLKKAVVMPLQLIQEQAASPNAEIHILKNKGRKRKLESLDALEPEEKAEDCWELQISPELLAHGRQKILDLLNEGSARDLRSLQRIGPKKAQLIVGWRELHGPFSQVEDLERVEGITGKQMESFLKANILGLAAGQRCGAS
4 | binds | DEK (protein, UniProt P35659 1-375) MSASAPAAEGEGTPTQPASEKEPEMPGPREESEEEEDEDDEEEEEEEKEKSLIVEGKREKKKVERLTMQVSSLQREPFTIAQGKGQKLCEIERIHFFLSKKKTDELRNLHKLLYNRPGTVSSLKKNVGQFSGFPFEKGSVQYKKKEEMLKKFRNAMLKSICEVLDLERSGVNSELVKRILNFLMHPKPSGKPLPKSKKTCSKGSKKERNSSGMARKAKRTKCPEILSDESSSDEDEKKNKEESSDDEDKESEEEPPKKTAKREKPKQKATSKSKKSVKSANVKKADSSTTKKNQNSSKKESESEDSSDDEPLIKKLKKPPTDEELKETIKKLLASANLEEVTMKQICKKVYENYPTYDLTERKDFIKTTVKELIS
5 | binds | RRMJ3 (protein, UniProt Q8IY81 1-847) MGKKGKVGKSRRDKFYHLAKETGYRSRSAFKLIQLNRRFQFLQKARALLDLCAAPGGWLQVAAKFMPVSSLIVGVDLVPIKPLPNVVTLQQDITTERCRQALRKELKTWKVDVVLNDGAPNVGASWVHDAYSQAHLTLMALRLACDFLARGGSFITKVFRSRDYQPLLWIFQQLFRRVQATKPQASRHESAEIFVVCQGFLAPDKVDSKFFDPKFAFKEVEVQAKTVTELVTKKKPKAEGYAEGDLTLYHRTSVTDFLRAANPVDFLSKASEIMVDDEELAQHPATTEDIRVCCQDIRVLGRKELRSLLNWRTKLRRYVAKKLKEQAKALDISLSSGEEDEGDEEDSTAGTTKQPSKEEEEEEEEEQLNQTLAEMKAQEVAELKRKKKKLLREQRKQRERVELKMDLPGVSIADEGETGMFSLSTIRGHQLLEEVTQGDMSAADTFLSDLPRDDIYVSDVEDDGDDTSLDSDLDPEELAGVRGHQGLRDQKRMRLTEVQDDKEEEEEENPLLVPLEEKAVLQEEQANLWFSKGSFAGIEDDADEALEISQAQLLFENRRKGRQQQQKQQLPQTPPSCLKTEIMSPLYQDEAPKGTEASSGTEAATGLEGEEKDGISDSDSSTSSEEEESWEPLRGKKRSRGPKSDDDGFEIVPIEDPAKHRILDPEGLALGAVIASSKKAKRDLIDNSFNRYTFNEDEGELPEWFVQEEKQHRIRQLPVGKKEVEHYRKRWREINARPIKKVAEAKARKKRRMLKRLEQTRKKAEAVVNTVDISEREKVAQLRSLYKKAGLGKEKRHVTYVVAKKGVGRKVRRPAGVRGHFKVVDSRMKKDQRAQQRKEQKKKHKRK
6 | binds | CCDC86 (protein, UniProt Q9H6F5 1-360) MDTPLRRSRRLGGLRPESPESLTSVSRTRRALVEFESNPEETREPGSPPSVQRAGLGSPERPPKTSPGSPRLQQGAGLESPQGQPEPGAASPQRQQDLHLESPQRQPEYSPESPRCQPKPSEEAPKCSQDQGVLASELAQNKEELTPGAPQHQLPPVPGSPEPYPGQQAPGPEPSQPLLELTPRAPGSPRGQHEPSKPPPAGETVTGGFGAKKRKGSSSQAPASKKLNKEELPVIPKGKPKSGRVWKDRSKKRFSQMLQDKPLRTSWQRKMKERQERKLAKDFARHLEEEKERRRQEKKQRRAENLKRRLENERKAEVVQVIRNPAKLKRAKKKQLRSIEKRDTLALLQKQPPQQPAAKI
7 | binds | NOP2 (protein, UniProt P46087 1-812) MGRKLDPTKEKRGPGRKARKQKGAETELVRFLPAVSDENSKRLSSRARKRAAKRRLGSVEAPKTNKSPEAKPLPGKLPKGISAGAVQTAGKKGPQSLFNAPRGKKRPAPGSDEEEEEEDSEEDGMVNHGDLWGSEDDADTVDDYGADSNSEDEEEGEALLPIERAARKQKAREAAAGIQWSEEETEDEEEEKEVTPESGPPKVEEADGGLQINVDEEPFVLPPAGEMEQDAQAPDLQRVHKRIQDIVGILRDFGAQREEGRSRSEYLNRLKKDLAIYYSYGDFLLGKLMDLFPLSELVEFLEANEVPRPVTLRTNTLKTRRRDLAQALINRGVNLDPLGKWSKTGLVVYDSSVPIGATPEYLAGHYMLQGASSMLPVMALAPQEHERILDMCCAPGGKTSYMAQLMKNTGVILANDANAERLKSVVGNLHRLGVTNTIISHYDGRQFPKVVGGFDRVLLDAPCSGTGVISKDPAVKTNKDEKDILRCAHLQKELLLSAIDSVNATSKTGGYLVYCTCSITVEENEWVVDYALKKRNVRLVPTGLDFGQEGFTRFRERRFHPSLRSTRRFYPHTHNMDGFFIAKFKKFSNSIPQSQTGNSETATPTNVDLPQVIPKSENSSQPAKKAKGAAKTKQQLQKQQHPKKASFQKLNGISKGADSELSTVPSVTKTQASSSFQDSSQPAGKAEGIREPKVTGKLKQRSPKLQSSKKVAFLRQNAPPKGTDTQTPAVLSPSKTQATLKPKDHHQPLGRAKGVEKQQLPEQPFEKAAFQKQNDTPKGPQPPTVSPIRSSRPPPAKRKKSQSRGNSQLLLS
8 | binds | HNRNPL (protein, UniProt P14866 1-589) MSRRLLPRAEKRRRRLEQRQQPDEQRRRSGAMVKMAAAGGGGGGGRYYGGGSEGGRAPKRLKTDNAGDQHGGGGGGGGGAGAAGGGGGGENYDDPHKTPASPVVHIRGLIDGVVEADLVEALQEFGPISYVVVMPKKRQALVEFEDVLGACNAVNYAADNQIYIAGHPAFVNYSTSQKISRPGDSDDSRSVNSVLLFTILNPIYSITTDVLYTICNPCGPVQRIVIFRKNGVQAMVEFDSVQSAQRAKASLNGADIYSGCCTLKIEYAKPTRLNVFKNDQDTWDYTNPNLSGQGDPGSNPNKRQRQPPLLGDHPAEYGGPHGGYHSHYHDEGYGPPPPHYEGRRMGPPVGGHRRGPSRYGPQYGHPPPPPPPPEYGPHADSPVLMVYGLDQSKMNCDRVFNVFCLYGNVEKVKFMKSKPGAAMVEMADGYAVDRAITHLNNNFMFGQKLNVCVSKQPAIMPGQSYGLEDGSCSYKDFSESRNNRFSTPEQAAKNRIQHPSNVLHFFNAPLEVTEENFFEICDELGVKRPSSVKVFSGKSERSSSGLLEWESKSDALETLGFLNHYQMKNPNGPYPYTLKLCFSTAQHAS
9 | binds | HNRNPR (protein, UniProt O43390 1-633) MANQVNGNAVQLKEEEEPMDTSSVTHTEHYKTLIEAGLPQKVAERLDEIFQTGLVAYVDLDERAIDALREFNEEGALSVLQQFKESDLSHVQNKSAFLCGVMKTYRQREKQGSKVQESTKGPDEAKIKALLERTGYTLDVTTGQRKYGGPPPDSVYSGVQPGIGTEVFVGKIPRDLYEDELVPLFEKAGPIWDLRLMMDPLSGQNRGYAFITFCGKEAAQEAVKLCDSYEIRPGKHLGVCISVANNRLFVGSIPKNKTKENILEEFSKVTEGLVDVILYHQPDDKKKNRGFCFLEYEDHKSAAQARRRLMSGKVKVWGNVVTVEWADPVEEPDPEVMAKVKVLFVRNLATTVTEEILEKSFSEFGKLERVKKLKDYAFVHFEDRGAAVKAMDEMNGKEIEGEEIEIVLAKPPDKKRKERQAARQASRSTAYEDYYYHPPPRMPPPIRGRGRGGGRGGYGYPPDYYGYEDYYDDYYGYDYHDYRGGYEDPYYGYDDGYAVRGRGGGRGGRGAPPPPRGRGAPPPRGRAGYSQRGAPLGPPRGSRGGRGGPAQQQRGRGSRGSRGNRGGNVGGKRKADGYNQPDSKRRQTNNQQNWGSQPIAQQPLQQGGDYSGNYGYNNDNQEFYQDTYGQQWK
10 | binds | VRK1 (protein, UniProt Q99986 1-396) MPRVKAAQAGRQSSAKRHLAEQFAVGEIITDMAKKEWKVGLPIGQGGFGCIYLADMNSSESVGSDAPCVVKVEPSDNGPLFTELKFYQRAAKPEQIQKWIRTRKLKYLGVPKYWGSGLHDKNGKSYRFMIMDRFGSDLQKIYEANAKRFSRKTVLQLSLRILDILEYIHEHEYVHGDIKASNLLLNYKNPDQVYLVDYGLAYRYCPEGVHKEYKEDPKRCHDGTIEFTSIDAHNGVAPSRRGDLEILGYCMIQWLTGHLPWEDNLKDPKYVRDSKIRYRENIASLMDKCFPEKNKPGEIAKYMETVKLLDYTEKPLYENLRDILLQGLKAIGSKDDGKLDLSVVENGGLKAKTITKKRKKEIEESKEPGVEDTEWSNTQTEEAIQTRSRTRKRVQK
